# Library screening results

The chains behind the UniProt entries cited, without tags or fusion partners.
UniProt E9BF75, entry or part of it: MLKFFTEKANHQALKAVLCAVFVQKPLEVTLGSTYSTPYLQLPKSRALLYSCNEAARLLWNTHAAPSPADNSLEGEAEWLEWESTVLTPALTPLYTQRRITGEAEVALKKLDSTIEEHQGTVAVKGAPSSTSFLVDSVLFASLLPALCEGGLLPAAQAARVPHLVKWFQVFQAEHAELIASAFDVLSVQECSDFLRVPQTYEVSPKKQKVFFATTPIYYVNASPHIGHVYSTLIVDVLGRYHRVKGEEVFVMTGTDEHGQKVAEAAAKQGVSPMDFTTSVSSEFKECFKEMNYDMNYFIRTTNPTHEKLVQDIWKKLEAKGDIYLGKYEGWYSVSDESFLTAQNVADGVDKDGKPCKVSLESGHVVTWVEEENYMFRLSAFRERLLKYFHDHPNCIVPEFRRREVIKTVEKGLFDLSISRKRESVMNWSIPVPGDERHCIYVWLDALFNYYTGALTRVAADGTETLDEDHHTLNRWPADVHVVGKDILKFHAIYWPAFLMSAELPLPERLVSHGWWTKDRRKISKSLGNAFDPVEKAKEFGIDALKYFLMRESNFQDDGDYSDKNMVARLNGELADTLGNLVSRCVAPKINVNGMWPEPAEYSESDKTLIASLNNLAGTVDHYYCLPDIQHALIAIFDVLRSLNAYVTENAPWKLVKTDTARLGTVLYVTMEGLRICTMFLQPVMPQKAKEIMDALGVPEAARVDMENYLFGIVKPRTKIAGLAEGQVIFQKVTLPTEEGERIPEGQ

Source: ChEMBL document CHEMBL3988442, “University of Dundee, Small-Polar-MMV Screening Library” (2021).

Results are percentages, as filed. The controls that fix the scale are not given in the record; negative values are as filed. This is an unselected part of the compounds tested. A dash means the value is not listed here; it may have been measured.

LdMetRS: 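Methionyl-tRNA synthetase (putative), Leishmania donovani (UniProt E9BF75). Primary screen of methionyl-tRNA synthetase; the read-out is not stated. The test concentration is not given. Values are per cent inhibition. Of about 68,000 compounds tested this way, about 24 (0.035%) reached 50% or more in at least one test.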
Mtb heat-shock: 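Assay on Mycobacterium tuberculosis, filed only as a heat shock assay from Cornell; the read-out is not stated. The concentration is filed as 10 mM, unlikely as a test dose, so the dose is not known. The record gives no direction; compounds that gave an IC50 in retests scored well above the rest, so higher reads as stronger inhibition. About 69,000 compounds were tested under these conditions; 1.4% (about 930) showed 50% or more at least once.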

compound | LdMetRS | Mtb heat-shock
CCOc1nnc(CN2CCOC(CNc3cccnn3)C2)s1 (stereo not shown) | 4.453 | -5.955
CC(NCc1ccccn1)c1ccc(N2CCN(C)CC2)c(F)c1 (stereo not shown) | 12.53 | 0.6068
Cc1noc(-c2ccc(-n3ncc(C(=O)O)c3C)nc2)n1 | 9.115 | -7.873
O=C(NC1CCCCC1)N1CCc2onc(COc3cccnc3)c2C1 | 13.93 | -
CCS(=O)(=O)N1CCOCC2(CCN(c3ccccn3)C2)C1 (stereo not shown) | 18.73 | -
CN1CCC(N(Cc2ccncc2)C(=O)COCC2CCCCO2)CC1 (stereo not shown) | 7.062 | -0.02012
CCSc1ncc(CN2CCN(c3ccc(C#N)cc3)C(=O)C2)cn1 | 17.42 | -11.27
Cc1cnc(C(=O)N2CCC3(CC2)CC(c2ccccc2)C(=O)N3)cn1 (stereo not shown) | -36.3 | -16.07
O=C(c1cccc(F)c1)N1CCOC(c2nc(-c3ncccn3)no2)C1 (stereo not shown) | 5.226 | 0.9578
Cc1ccccc1C(=O)N1C[C@@H]2OCCN(c3ncccn3)[C@@H]2C1 | -0.274 | -
Cn1nc(COc2cccnc2)c2c1CCN(CC1CC1)C2 | 5.168 | -
CCCc1nnc(NC(=O)N2CCCC2c2ccncc2)s1 (stereo not shown) | -1.056 | 22.32
O=C(c1ccnnc1)N1CCc2onc(Cn3cccn3)c2C1 | 1.961 | -22.04
Cc1cccc(C)c1OCC(=O)N1CCOCC1c1ncon1 (stereo not shown) | 11.96 | 2.419
O=C(CCn1cc(Cl)cn1)N1CCC2(CC1)OCCCC2O (stereo not shown) | 1.412 | -3.3
CC(CO)(NC(=O)Nc1nncs1)C1CCCCC1 (stereo not shown) | 10.22 | 5.048
COc1nccnc1N1CCC2(CC1)C(=O)N(C)c1ccccc12 | 8.403 | -22.81
Cc1noc(C2CCCN(CC(=O)N3CCc4ccccc4C3)C2)n1 (stereo not shown) | 12.32 | -6.192
[H][C@@]12CC(=O)N(C)[C@@]1([H])CCN2C(=O)c1ccc[nH]1 | - | 4.231
Cc1nnc(N2CCOC(C)(C(=O)N(C)C)C2)c2ccccc12 (stereo not shown) | 9.206 | 0.5691
NS(=O)(=O)CCCC(=O)N1CCC2(CC1)c1ccccc1CC2O (stereo not shown) | 8.027 | -9.998
c1csc(CN2CCCn3cnc(COCC4CC4)c3C2)c1 | 14.92 | -
COc1cccc(-c2nc(CNCc3cccnc3)cs2)c1 | 20.97 | -18.41
CC(C)N1CCC(C(=O)N(C)CC(=O)c2ccc(O)cc2)CC1 | 20.36 | -13.24
CN1CCCC(c2cccc(CCC(=O)NCC3(C)COC3)n2)C1 (stereo not shown) | 10.73 | -1.686
O=C(c1ccc(-n2ccnc2)cc1)N1CCCC(n2ccnc2)C1 (stereo not shown) | 22.22 | -7.631
Cc1cccc(N2CCC3(CCN(Cc4ccccn4)CC3)CC2)n1 | 4.38 | -
c1cnn(Cc2ccc(CN3CCC4(CCNCC4)C3)cc2)c1 | 17.39 | -5.757
O=C(c1cn2cc(Cl)ccc2n1)N1CCC(CCn2cccn2)CC1 | 4.762 | -24.46
NC(=O)c1cnn2c1NCC(CNCCc1ccco1)C2 (stereo not shown) | 14.29 | -3.364
CN1CCCn2c(nc(CNC(=O)c3ccsc3)cc2=O)C1 | 8.155 | -
COc1ccccc1OC1CN(C(=O)CN(C)Cc2ccncc2)C1 | 9.355 | 7.953
COCC1CC2(CCN(C(=O)c3ccccc3C)CC2)CN1C(C)C (stereo not shown) | 3.311 | -
O=C(c1ccccc1C(F)(F)F)N1CC[C@@H](N2CCC(O)CC2)[C@H](O)C1 | 5.923 | 11.31
CC(C)CN1Cc2nc(N3CCCC3)ncc2C1=O | 4.249 | -13.83
CN(CCc1nc2cc(Cl)ccc2[nH]1)C(=O)c1ncn[nH]1 | 4.632 | 16.34
O=C(c1cccnc1-n1cncn1)N1CCN(CC2CC2)CC1 | 11.96 | -7.956
CC(C)CN1CCC(C(=O)NCCNC(=O)c2ccco2)CC1 | -0.8357 | -0.08668
CC(C)c1nnc2n1CCN(Cc1csc(-c3cnn(C)c3)n1)C2 | 16.1 | 2.86
Cc1cncc(C(=O)N2C[C@@H]3CN(S(C)(=O)=O)CCO[C@@H]3C2)c1 | 7.104 | -
Cn1ccc(CNC(=O)N2CCC(C3(C)OCCO3)CC2)c1 | 23.39 | 1.578
O=C(O)C(F)(F)F.O=C(O)C(F)(F)F.O=C(O)C(F)(F)F.[H][C@@]12C[C@@H](OCc3cccc(C)n3)CN1CCN(c1ncc(C)cn1)C2 | - | -29.11

5 of the entries, repeated:

compound,LdMetRS,Mtb heat-shock
COc1cccc(-c2nc(CNCc3cccnc3)cs2)c1,20.97,-18.41
O=C(c1cccc(F)c1)N1CCOC(c2nc(-c3ncccn3)no2)C1 (stereo not shown),5.226,0.9578
O=C(c1cccnc1-n1cncn1)N1CCN(CC2CC2)CC1,11.96,-7.956
O=C(c1cn2cc(Cl)ccc2n1)N1CCC(CCn2cccn2)CC1,4.762,-24.46
CC(NCc1ccccn1)c1ccc(N2CCN(C)CC2)c(F)c1 (stereo not shown),12.53,0.6068